The source of these data is US20230051263A1, “DEVICE FOR RAPID AND QU[…] OF DRUGS OF ABUSE IN SWEAT” (THE REGENTS OF THE UNIVERSITY OF MICHIGAN, priority 2020, published 2023).

Read-outs that look alike come from different tables or passages of the source.

Data set [1] has as its system corresponding antibody coated on capillary inner surface. The experiment in a line: Detection of individual drugs in artificial sweat, inhibition curves (capillary competitive chemiluminescent ELISA). The settings on record: for detection limit (IC(100-3δ)): artificial sweat, 4 μL, about 16 minutes, estimated from inhibition curves. The format is binding.
Data set [2] relates to four different antibodies. The experiment in a line: Multiplexed drug detection with mixed drug-HRP conjugates.
The conditions of data set [3]: cited from earlier work.
The subject of data set [4] is four different antibodies. Put plainly: Multiplexed drug detection with one drug absent.
Where [5] appears, read: methadone-HRP 2000x, METH-HRP before 8x increase, amphetamine-HRP 15000x.
Where [6] appears, read: High level, spiked: methadone 0.5, METH 10, amphetamine 3, THC 500 ng/mL.
[7] abbreviates: Intermediate level, spiked: methadone 0.05, METH 1, amphetamine 0.3, THC 50 ng/mL.
[8] abbreviates: Low level, spiked: methadone 0.006, METH 0.18, amphetamine 0.16, THC 0.1 ng/mL.
Where [9] appears, read: Colorimetry, ELISA in meconium (ref 5, Marin 2011), >1.5 h.
Where [10] appears, read: High level, amphetamine absent, spiked: methadone 0.6, METH 18, amphetamine 0, THC 800 ng/mL.
The mark [11] stands for this setting: Intermediate level, METH absent, spiked: methadone 0.06, METH 0, amphetamine 1.6, THC 100 ng/mL.
[12] abbreviates: Low level, methadone absent, spiked: methadone 0, METH 0.18, amphetamine 0.16, THC 0.1 ng/mL.
Where [13] appears, read: second 'Intermediate level' group, THC absent, spiked: methadone 0.5, METH 10, amphetamine 3, THC 0 ng/mL.
[14] abbreviates: Colorimetry, Neogen kit (ref 1), ~1.5 h, 10 μL.

Consider `CC(N)Cc1ccccc1` (stereo not drawn) [Amphetamine, amphetamine], for which the “upper limit of quantitatively analysable concentration” value (“upper limit” for short) in data set [1] (amphetamine-HRP 8000x dilution) was found to be 40 ng/mL; in data set [1] (setting [5]), 10 ng/mL. In addition, the “detection limit (IC(100-3δ))” value in data set [1] is given as 35 pg/mL. Further, the Observed in data set [2] (setting [6]) was found to be 2.17 ± 0.31 ng/mL; in data set [2] (setting [7]), 0.41 ± 0.11 ng/mL; in data set [2] (setting [8]), 0.20 ± 0.02 ng/mL; in data set [4] (setting [10]), 0 ng/mL; in data set [4] (setting [11]) it was 1.77 ± 0.38 ng/mL; in data set [4] (setting [12]), 0.20 ± 0.02 ng/mL. Also, the Observed in data set [4] (setting [13]) came to 2.56 ± 0.31 ng/mL. The Detection limit in data set [3] (Colorimetry, ELISA in blood and oral fluid (ref 4, Laloup 2005), >1.5 h, 25 μL) is 10000 pg/mL; in data set [3] (setting [9]) it was 20 ng/g.
In the case of `CCCCCc1cc(O)c2c(c1)OC(C)(C)[C@@H]1CCC(C)=C[C@@H]21` [THC, tetrahydrocannabinol], in data set [1], the “detection limit (IC(100-3δ))” value was 20 pg/mL. Also, the Observed turned out to be 463.70 ± 4.90 ng/mL in data set [2] (setting [6]); 48.80 ± 3.54 ng/mL in data set [2] (setting [7]); 0.18 ± 0.03 ng/mL in data set [2] (setting [8]); 738 ± 5.70 ng/mL in data set [4] (setting [10]); 106.20 ± 2.92 ng/mL in data set [4] (setting [11]); 0.12 ± 0.01 ng/mL in data set [4] (setting [12]). In data set [4] (setting [13]), this compound yielded an Observed of 0 ng/mL. Besides, in data set [3] (setting [14]), the Detection limit is on record as 100 pg/mL.
In the case of `CN1CC[C@]23c4c5ccc(O)c4O[C@H]2[C@@H](O)C=C[C@H]3[C@H]1C5` [Morphine, morphine], the Detection limit in data set [3] (Quantum dots-labeled antibody fluorescence immunoassay (ref 3, Zhang 2017), >1 h, 100 μL) is listed as 270 pg/mL.
Consider `CCC(=O)C(CC(C)N(C)C)(c1ccccc1)c1ccccc1` (stereo not drawn) [Methadone, methadone], for which the “detection limit (IC(100-3δ))” value in data set [1] is reported as 1.6 pg/mL. Also, the “upper limit” value in data set [1] (methadone-HRP 100x dilution) was found to be 20 ng/mL; in data set [1] (methadone-HRP 500x dilution), 10 ng/mL; in data set [1] (setting [5]) it was 1 ng/mL. Also, the Observed in data set [2] (setting [6]) is given as 0.35 ± 0.06 ng/mL; in data set [2] (setting [7]) it was 0.06 ± 0.02 ng/mL; in data set [2] (setting [8]) it was 0.01 ± 0.01 ng/mL; in data set [4] (setting [10]) it was 0.61 ± 0.14 ng/mL; in data set [4] (setting [11]), 0.07 ± 0.03 ng/mL; in data set [4] (setting [12]), 0 ng/mL. For the same compound, the Observed in data set [4] (setting [13]) turned out to be 0.61 ± 0.05 ng/mL. For the same compound, the Detection limit in data set [3] (setting [9]) was 25 ng/g; in data set [3] (setting [14]), 50 pg/mL.
Regarding `CN[C@@H](C)Cc1ccccc1` [METH, methamphetamine], the “upper limit” value is listed as 200 ng/mL in data set [1] (8x higher METH-HRP concentration) and 25 ng/mL in data set [1] (setting [5]). Besides, the “detection limit (IC(100-3δ))” value in data set [1] is 142 pg/mL. Further, the Observed in data set [2] (setting [6]) is given as 5.23 ± 1.27 ng/mL; in data set [2] (setting [7]) it was 1.43 ± 0.32 ng/mL; in data set [2] (setting [8]) it was 0.24 ± 0.03 ng/mL; in data set [4] (setting [10]), 14.60 ± 2.83 ng/mL; in data set [4] (setting [11]), 0 ng/mL; in data set [4] (setting [12]) it was 0.21 ± 0.03 ng/mL. Moreover, in data set [4] (setting [13]), the Observed worked out at 8.12 ± 0.22 ng/mL. In addition, the Detection limit in data set [3] (Colorimetry, Au@Ag core-shell nanoparticle biosensor (ref 6, Mao 2017), 2 h, 10 μL) was 14.9 pg/mL; in data set [3] (setting [9]), 20 ng/g; in data set [3] (setting [14]), 1000 pg/mL.
